Measured values published in PMC7819943, “Rice protein-binding microarrays: a tool to detect cis-acting elements near promoter regions in rice”.
This is one part of the list.

Chains of the proteins cited; added tags and fusions are not shown.
UniProt Q0JBA9, entry or part of it: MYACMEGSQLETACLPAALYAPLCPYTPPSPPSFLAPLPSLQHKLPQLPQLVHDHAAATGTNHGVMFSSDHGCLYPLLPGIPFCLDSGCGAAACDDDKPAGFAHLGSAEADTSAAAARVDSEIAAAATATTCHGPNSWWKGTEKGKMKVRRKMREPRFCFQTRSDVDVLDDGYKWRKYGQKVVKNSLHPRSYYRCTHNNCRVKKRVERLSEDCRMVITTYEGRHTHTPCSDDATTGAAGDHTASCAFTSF

The sequences below were run against OsWRKY34 (Oryza sativa, UniProt Q0JBA9 1-250) (assay: protein-binding microarray (RPBM); PBS, 2% BSA, 51.3 ng/ul salmon testes DNA, 50 uM zinc acetate, 200 nM TF, 25 C, 1 h; high values mean tight binding). Conditions: protein: recombinant; tags: N-terminal polyhistidine and DsRed monomer fusion (pET32a); label: CyDye5-dUTP incorporated in the synthesized complementary strand; 3' TTTTT single-stranded linker to array surface; dsDNA, one strand shown.
How it was run: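 Binding signal is defined as the fluorescence intensity of each feature in arbitrary units, read on an Axon 4000B scanner. Transcription factors with N-terminal polyhistidine and DsRed fusions came from E. coli BL21-CodonPlus and were purified on Ni–NTA. They were incubated at 200 nM for 1 h at 25 °C on a custom Agilent array that had been made double-stranded with Cy5-dUTP, with 50 µM zinc acetate present, and the array was washed.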
In the case of “AAGGTTGTCTTGTTTGATTAGCTATTTTCTTTGCCTGGTTCGGAGTCACCTAGTGCAG”, the binding signal was 11400 fluorescence intensity (a.u.). For “ACATAGCAGCAGGCGGCGACCTCGGTTTACGGAAAGTCAACGGAGTCACCTAGTGCAG”, the binding signal was 9300 fluorescence intensity (a.u.). In the case of “AAAAAATGTGTGCGGTCAGAAGGTGGTTTGATTCTTATTTCGGAGTCACCTAGTGCAG”, the binding signal was 11000 fluorescence intensity (a.u.). “CTTCCTATCTTCCCTGCTTCTACTTTTCTTATCCTTTTGCCGGAGTCACCTAGTGCAG” was tested, and the binding signal was 9360 fluorescence intensity (a.u.). With “AATCTCGACCACTGTCTACGTATACCTGCTTCATCTGAACCGGAGTCACCTAGTGCAG” the binding signal was 9740 fluorescence intensity (a.u.). In the case of “GGGTTTTGTTTGGCTGTATTTTGTGAATTTGTGATGCAGTCGGAGTCACCTAGTGCAG”, the binding signal was 10400 fluorescence intensity (a.u.). “ATACATCTACCTCTCACCATACCTCACGCGACCTACATAACGGAGTCACCTAGTGCAG” was tested, and the binding signal was 12300 fluorescence intensity (a.u.). “CCATGTGAATTGCTTCTTCGTACTACTGTACTCTCTTTCTCGGAGTCACCTAGTGCAG” was tested, and the binding signal was 12300 fluorescence intensity (a.u.). In the case of “TGCTCGGGTTCGTGGGGTTGGGAAGCGAGGGATGCGATCTCGGAGTCACCTAGTGCAG”, the binding signal was 8720 fluorescence intensity (a.u.). “CAATGTTTCCGTTCCGTTAGATTCGCTGGTCTGGACGCCGCGGAGTCACCTAGTGCAG” was tested, and the binding signal was 9580 fluorescence intensity (a.u.). For “ATCTTTTACCCTTTTTTTAACAAAGTTATTTTTTAGGAGCCGGAGTCACCTAGTGCAG”, the binding signal was 8520 fluorescence intensity (a.u.). With “ATGACACTGTACTTATCGCTATCACGTACTGTTCGCTTTCCGGAGTCACCTAGTGCAG” the binding signal was 9940 fluorescence intensity (a.u.). In the case of “TCGAGTTTCGACTACCATCTCAGCTTCGGTCTCGTATTCTCGGAGTCACCTAGTGCAG”, the binding signal was 10700 fluorescence intensity (a.u.). “CTCTTATATTCCAAGCATCTCGTGTTTTATGCTTTTTAATCGGAGTCACCTAGTGCAG” was tested, and the binding signal was 9360 fluorescence intensity (a.u.). In the case of “AGTGGGTGGGCTCAAAGTCGAAGTCTCGATACAATTAAAACGGAGTCACCTAGTGCAG”, the binding signal was 10000 fluorescence intensity (a.u.). “GGGGTATTACCGTATTAGTGGGAAATGTTCGATCTTTCTACGGAGTCACCTAGTGCAG” was tested, and the binding signal was 8130 fluorescence intensity (a.u.). With “TTATGCTTCACCATCGACTCATGCACTTGTCCCCGTATCACGGAGTCACCTAGTGCAG” the binding signal was 8070 fluorescence intensity (a.u.). With “CAACACTTTATCCATGTATATCATGCTGTTTCATTACATTCGGAGTCACCTAGTGCAG” the binding signal was 11200 fluorescence intensity (a.u.). “GGTTTCGGTCTCGGTTTTTTCGGTTCGGTTCTTCGGTTCGCGGAGTCACCTAGTGCAG” was tested, and the binding signal was 9660 fluorescence intensity (a.u.). For “CACTGCGGCTACCGGTCACCCTAAATATATATTCGTATGCCGGAGTCACCTAGTGCAG”, the binding signal was 10700 fluorescence intensity (a.u.). “CGAAACCGACGGTCCAGATCTCGCCGCGCCAACCCCATCACGGAGTCACCTAGTGCAG” was tested, and the binding signal was 8790 fluorescence intensity (a.u.). “CCAACACGTCCTCCTCAATATATTTTTTTCCGCCACGCGCCGGAGTCACCTAGTGCAG” was tested, and the binding signal was 8180 fluorescence intensity (a.u.). For “CTATATTTTATGTCGACGACAACATCTAGCTATTTCTTATCGGAGTCACCTAGTGCAG”, the binding signal was 9980 fluorescence intensity (a.u.). “TGGTGGCGGCGGATCGCGTGTGGGACGGGAGGAGGAGGGTCGGAGTCACCTAGTGCAG” was tested, and the binding signal was 8920 fluorescence intensity (a.u.). With “GCAGCTGAGACTACACATCCCACCGTCCGTTGATCTGTTCCGGAGTCACCTAGTGCAG” the binding signal was 9250 fluorescence intensity (a.u.). With “CTCGTTTCTCCTACCTTTGGCCTGCCCATTAATGGCCCCTCGGAGTCACCTAGTGCAG” the binding signal was 8300 fluorescence intensity (a.u.). “GTACGTCGCCGCGCTCTTGGAGCTTGGTCAACCCTCGGCACGGAGTCACCTAGTGCAG” was tested, and the binding signal was 10600 fluorescence intensity (a.u.). With “ACACGGCAGCAGCCCATCTCCCACCACACATATAACCCAGCGGAGTCACCTAGTGCAG” the binding signal was 8710 fluorescence intensity (a.u.). “CGCGTCTGCGAGCCCCACACCAAGTGCCTCCGCGTCGTCGCGGAGTCACCTAGTGCAG” was tested, and the binding signal was 8060 fluorescence intensity (a.u.). For “ACAAGTTGACATATTCTCTCTTTCCATCTCAAGCCGATTTCGGAGTCACCTAGTGCAG”, the binding signal was 8670 fluorescence intensity (a.u.). For “CAAATATGCCCGTTACCCTTTTGAACCGGTTTTTATTGCACGGAGTCACCTAGTGCAG”, the binding signal was 9810 fluorescence intensity (a.u.). In the case of “GCCTCGCCGCCGCCGCCGCCGCCTCCGGCTCGCCGGCTCCCGGAGTCACCTAGTGCAG”, the binding signal was 8750 fluorescence intensity (a.u.). “AACATACCGGTCACTCTTGCCATAACTGATCACTTTCCTGCGGAGTCACCTAGTGCAG” was tested, and the binding signal was 10500 fluorescence intensity (a.u.). In the case of “TCCATCTCATAAAAACCATCATTTTGGGCCTATTCACTTTCGGAGTCACCTAGTGCAG”, the binding signal was 8420 fluorescence intensity (a.u.). In the case of “GGGTTTTTTTTTTTTTTGCTGCTTTGCTTAGCACTTTTTTCGGAGTCACCTAGTGCAG”, the binding signal was 8340 fluorescence intensity (a.u.). For “GGAGTATAGTGTAGTGCTTCCTTTTTTTCTCATTTATTTTCGGAGTCACCTAGTGCAG”, the binding signal was 11300 fluorescence intensity (a.u.). In the case of “AGACAGAGGAATAGTATCGTGCCGTAACCGCAGCTGCAACCGGAGTCACCTAGTGCAG”, the binding signal was 11200 fluorescence intensity (a.u.). “CCGCCATGTGGGCCCCACCTCGCCGCCTCCGCTCCACTCTCGGAGTCACCTAGTGCAG” was tested, and the binding signal was 13600 fluorescence intensity (a.u.). With “TGGGTTTCCGTGTCCAACGTTTGACTGTCCGTCTTATATGCGGAGTCACCTAGTGCAG” the binding signal was 12000 fluorescence intensity (a.u.). With “TTTTTGTTTTTTTCTCTGGCTATTGTTGCAATCCAAATGACGGAGTCACCTAGTGCAG” the binding signal was 12600 fluorescence intensity (a.u.). For “TAACACCAACAGCTTCCTACCACTTCACCTTTTATCATAACGGAGTCACCTAGTGCAG”, the binding signal was 9560 fluorescence intensity (a.u.). For “TCCTTGTCCTCTTCTGTGTTCTTCCTCTCTTGCTGATCACCGGAGTCACCTAGTGCAG”, the binding signal was 12100 fluorescence intensity (a.u.). For “ACAGTGTGTTTTCTTGTAAGTTACAGTGTAATTTTTTAATCGGAGTCACCTAGTGCAG”, the binding signal was 8080 fluorescence intensity (a.u.). With “CCACACGCATGGGCTGCATTTCGCCTCTTAAATTAATCAACGGAGTCACCTAGTGCAG” the binding signal was 10000 fluorescence intensity (a.u.). In the case of “TTTTTTCACCCTGATGTCACAGCCACAGCAGCAGTAGTACCGGAGTCACCTAGTGCAG”, the binding signal was 11500 fluorescence intensity (a.u.). In the case of “TAGCTTTTGCACTTCTCTCCACAGCCTAAAATCCAATCCACGGAGTCACCTAGTGCAG”, the binding signal was 8860 fluorescence intensity (a.u.). With “TGCATGCATTATGACTTTTGACTTGTGACACATAGTCACACGGAGTCACCTAGTGCAG” the binding signal was 8260 fluorescence intensity (a.u.). In the case of “CGCCAATTGTCAATTCCGACACAACTTTGCTACTTTAACACGGAGTCACCTAGTGCAG”, the binding signal was 8770 fluorescence intensity (a.u.). “AATTCGCATGATTGTTTTCGTTTTGTTGGTCAGTGAATGACGGAGTCACCTAGTGCAG” was tested, and the binding signal was 8320 fluorescence intensity (a.u.). “CCGTTTCACAATGTAAGTCATTTCTAGCATTTCCCACATTCGGAGTCACCTAGTGCAG” was tested, and the binding signal was 10800 fluorescence intensity (a.u.). With “CCCTCTTCTCCTTTGCTTGGTCTCGTTTCGTCGCTGTCGTCGGAGTCACCTAGTGCAG” the binding signal was 8260 fluorescence intensity (a.u.). “AGTCGTCCTCTATTCCTCTTGTCTTTCTTCAATTGTTATTCGGAGTCACCTAGTGCAG” was tested, and the binding signal was 10700 fluorescence intensity (a.u.). In the case of “TACACGTTATACGTGTGTCTGGTTGGGGAAATTTTAGGAACGGAGTCACCTAGTGCAG”, the binding signal was 9830 fluorescence intensity (a.u.). For “GCCGCGCCGTCCTCTTCATCTGCACTTGCACTGCGCCATGCGGAGTCACCTAGTGCAG”, the binding signal was 12200 fluorescence intensity (a.u.).
